Test results taken from US7785835.
These are yes or no findings as the source states them, for the method shown. A result given as binding can be weak or reduced; the word gives no strength.

By UniProt entry, the sequences of proteins in these tests, tags left out. Where a name states a change or a piece, a line headed by the entry shows the natural chain unless it says otherwise. Residues count along the entry.
UniProt P04004, residues 20-478: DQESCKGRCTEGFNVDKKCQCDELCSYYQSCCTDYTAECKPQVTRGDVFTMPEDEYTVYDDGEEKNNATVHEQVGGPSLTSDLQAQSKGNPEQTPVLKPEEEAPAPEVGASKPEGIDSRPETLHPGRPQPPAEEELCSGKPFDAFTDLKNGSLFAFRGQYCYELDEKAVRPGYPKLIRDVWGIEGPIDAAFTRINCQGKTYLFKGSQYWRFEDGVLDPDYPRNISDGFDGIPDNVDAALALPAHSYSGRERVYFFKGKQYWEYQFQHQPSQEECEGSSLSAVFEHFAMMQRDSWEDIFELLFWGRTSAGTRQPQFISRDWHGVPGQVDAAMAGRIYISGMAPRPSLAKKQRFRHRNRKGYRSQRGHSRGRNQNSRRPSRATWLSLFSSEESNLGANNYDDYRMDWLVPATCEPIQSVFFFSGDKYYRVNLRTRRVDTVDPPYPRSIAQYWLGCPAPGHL
UniProt P01344: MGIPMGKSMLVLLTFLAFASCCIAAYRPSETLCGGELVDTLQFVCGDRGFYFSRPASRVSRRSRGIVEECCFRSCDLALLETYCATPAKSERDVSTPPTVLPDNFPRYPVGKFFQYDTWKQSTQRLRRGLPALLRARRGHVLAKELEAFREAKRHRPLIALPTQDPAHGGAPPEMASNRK

Biological target: vitronectin (UniProt P04004)
Test: [^125I]-IGF-II on VN-coated wells without IGFBP

binding: binds
Substance: insulin-like growth factor-II (from UniProt P01344) (ligand)
